This is one part of the list.
compound: Cc1cc(ccc1-c1ccccc1)C(=O)N1CCCN(CC1)C(=O)CCl [compound 10]; assay: probe-labelled cysteine peptide fold change vs DMSO (competition) (log2 fold change); higher = less target engagement (more negative = stronger competition); settings: 10 µM; THP-1; incubation time: 4 h
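Note: competitive profiling in live THP-1 cells: cysteine peptides tagged with an iodoacetamide desthiobiotin (IA-DTB) probe, intensity after compound treatment relative to DMSO-treated cells.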

Amino acid sequences for entries named in this document (tags omitted). A change or cut given only in a name is not applied to a line headed by its entry.
UniProt Q8WUH2: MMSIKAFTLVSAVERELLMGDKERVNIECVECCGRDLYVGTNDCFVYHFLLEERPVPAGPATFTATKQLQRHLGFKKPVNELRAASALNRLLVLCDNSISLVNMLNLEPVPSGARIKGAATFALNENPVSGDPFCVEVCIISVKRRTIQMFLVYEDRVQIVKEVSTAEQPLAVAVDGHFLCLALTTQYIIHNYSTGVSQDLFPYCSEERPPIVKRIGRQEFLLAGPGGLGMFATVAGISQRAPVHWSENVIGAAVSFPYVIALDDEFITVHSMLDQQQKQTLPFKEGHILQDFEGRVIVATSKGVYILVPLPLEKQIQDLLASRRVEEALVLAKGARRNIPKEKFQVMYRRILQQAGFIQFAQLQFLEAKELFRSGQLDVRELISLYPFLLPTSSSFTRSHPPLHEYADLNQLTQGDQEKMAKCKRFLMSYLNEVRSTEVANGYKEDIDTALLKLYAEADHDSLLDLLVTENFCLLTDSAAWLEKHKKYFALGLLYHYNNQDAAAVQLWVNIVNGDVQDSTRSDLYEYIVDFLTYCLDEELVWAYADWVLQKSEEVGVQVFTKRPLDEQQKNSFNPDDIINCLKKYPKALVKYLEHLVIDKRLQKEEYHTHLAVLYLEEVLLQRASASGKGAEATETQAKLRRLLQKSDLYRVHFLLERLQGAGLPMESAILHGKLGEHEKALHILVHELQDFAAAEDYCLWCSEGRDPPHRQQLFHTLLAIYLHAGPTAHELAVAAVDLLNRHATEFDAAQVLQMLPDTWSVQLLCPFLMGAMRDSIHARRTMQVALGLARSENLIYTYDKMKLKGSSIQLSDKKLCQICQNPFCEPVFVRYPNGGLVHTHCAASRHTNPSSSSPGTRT
UniProt Q9Y4R8, whole entry, looked up: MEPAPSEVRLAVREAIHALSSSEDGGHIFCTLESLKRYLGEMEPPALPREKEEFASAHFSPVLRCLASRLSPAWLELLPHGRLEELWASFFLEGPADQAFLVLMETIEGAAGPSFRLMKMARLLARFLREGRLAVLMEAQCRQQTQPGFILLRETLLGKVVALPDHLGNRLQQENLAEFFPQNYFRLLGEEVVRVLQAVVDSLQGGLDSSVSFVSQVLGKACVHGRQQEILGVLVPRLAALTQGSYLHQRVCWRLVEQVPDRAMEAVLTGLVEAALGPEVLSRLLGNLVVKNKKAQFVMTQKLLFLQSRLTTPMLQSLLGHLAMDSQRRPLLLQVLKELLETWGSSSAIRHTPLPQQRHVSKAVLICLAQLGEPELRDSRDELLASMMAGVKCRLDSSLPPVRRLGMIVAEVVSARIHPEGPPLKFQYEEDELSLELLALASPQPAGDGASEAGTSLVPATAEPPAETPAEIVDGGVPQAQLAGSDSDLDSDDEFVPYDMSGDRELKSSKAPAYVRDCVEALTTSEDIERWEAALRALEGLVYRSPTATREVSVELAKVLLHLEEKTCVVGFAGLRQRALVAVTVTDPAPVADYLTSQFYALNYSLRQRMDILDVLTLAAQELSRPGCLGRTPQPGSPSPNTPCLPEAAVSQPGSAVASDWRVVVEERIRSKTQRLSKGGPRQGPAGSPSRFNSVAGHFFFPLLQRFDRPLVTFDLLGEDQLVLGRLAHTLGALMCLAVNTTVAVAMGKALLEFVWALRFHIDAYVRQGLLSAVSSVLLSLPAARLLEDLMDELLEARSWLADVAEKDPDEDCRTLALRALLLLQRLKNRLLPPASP
UniProt P07996: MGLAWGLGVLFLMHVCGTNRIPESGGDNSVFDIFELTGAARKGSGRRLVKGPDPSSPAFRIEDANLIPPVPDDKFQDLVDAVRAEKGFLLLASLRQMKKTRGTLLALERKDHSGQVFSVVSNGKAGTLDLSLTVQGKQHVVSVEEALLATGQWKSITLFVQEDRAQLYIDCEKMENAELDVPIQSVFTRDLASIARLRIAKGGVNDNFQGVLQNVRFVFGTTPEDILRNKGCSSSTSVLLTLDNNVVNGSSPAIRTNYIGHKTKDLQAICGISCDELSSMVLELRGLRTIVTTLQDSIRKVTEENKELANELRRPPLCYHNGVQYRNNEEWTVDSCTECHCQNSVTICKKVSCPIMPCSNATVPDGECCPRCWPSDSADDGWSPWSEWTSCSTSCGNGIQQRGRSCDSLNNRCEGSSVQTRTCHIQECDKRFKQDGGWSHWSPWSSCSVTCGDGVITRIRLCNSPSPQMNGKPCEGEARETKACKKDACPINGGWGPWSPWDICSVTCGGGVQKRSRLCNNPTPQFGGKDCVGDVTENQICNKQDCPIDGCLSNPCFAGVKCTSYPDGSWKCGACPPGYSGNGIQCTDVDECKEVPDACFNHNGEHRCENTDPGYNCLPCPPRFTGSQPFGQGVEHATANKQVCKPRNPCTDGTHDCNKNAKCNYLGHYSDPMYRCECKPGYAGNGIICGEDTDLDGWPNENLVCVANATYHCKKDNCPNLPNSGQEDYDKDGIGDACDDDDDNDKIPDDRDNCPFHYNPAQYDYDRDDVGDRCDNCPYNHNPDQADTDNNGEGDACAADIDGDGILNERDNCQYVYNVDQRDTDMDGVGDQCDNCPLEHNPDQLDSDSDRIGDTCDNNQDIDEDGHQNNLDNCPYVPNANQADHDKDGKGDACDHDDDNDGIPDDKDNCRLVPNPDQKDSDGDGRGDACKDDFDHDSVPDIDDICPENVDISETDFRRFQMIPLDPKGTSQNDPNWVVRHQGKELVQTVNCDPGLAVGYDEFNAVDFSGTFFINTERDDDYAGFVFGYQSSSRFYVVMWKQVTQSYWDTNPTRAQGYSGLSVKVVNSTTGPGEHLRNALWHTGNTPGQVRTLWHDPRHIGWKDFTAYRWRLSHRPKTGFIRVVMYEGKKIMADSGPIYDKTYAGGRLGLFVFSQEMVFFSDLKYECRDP
UniProt Q9UGI8: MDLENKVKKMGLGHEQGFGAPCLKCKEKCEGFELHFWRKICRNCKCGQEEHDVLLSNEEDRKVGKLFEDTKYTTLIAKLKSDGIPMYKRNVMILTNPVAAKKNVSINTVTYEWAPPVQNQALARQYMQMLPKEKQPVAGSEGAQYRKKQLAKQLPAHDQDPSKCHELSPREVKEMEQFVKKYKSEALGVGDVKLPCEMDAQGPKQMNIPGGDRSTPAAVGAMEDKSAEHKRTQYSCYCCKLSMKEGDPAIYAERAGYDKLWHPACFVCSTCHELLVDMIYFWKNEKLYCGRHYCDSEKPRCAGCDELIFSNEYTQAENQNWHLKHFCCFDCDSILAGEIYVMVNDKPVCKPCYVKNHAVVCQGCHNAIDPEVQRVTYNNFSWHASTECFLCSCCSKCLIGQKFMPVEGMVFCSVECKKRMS
UniProt Q7Z2Z1: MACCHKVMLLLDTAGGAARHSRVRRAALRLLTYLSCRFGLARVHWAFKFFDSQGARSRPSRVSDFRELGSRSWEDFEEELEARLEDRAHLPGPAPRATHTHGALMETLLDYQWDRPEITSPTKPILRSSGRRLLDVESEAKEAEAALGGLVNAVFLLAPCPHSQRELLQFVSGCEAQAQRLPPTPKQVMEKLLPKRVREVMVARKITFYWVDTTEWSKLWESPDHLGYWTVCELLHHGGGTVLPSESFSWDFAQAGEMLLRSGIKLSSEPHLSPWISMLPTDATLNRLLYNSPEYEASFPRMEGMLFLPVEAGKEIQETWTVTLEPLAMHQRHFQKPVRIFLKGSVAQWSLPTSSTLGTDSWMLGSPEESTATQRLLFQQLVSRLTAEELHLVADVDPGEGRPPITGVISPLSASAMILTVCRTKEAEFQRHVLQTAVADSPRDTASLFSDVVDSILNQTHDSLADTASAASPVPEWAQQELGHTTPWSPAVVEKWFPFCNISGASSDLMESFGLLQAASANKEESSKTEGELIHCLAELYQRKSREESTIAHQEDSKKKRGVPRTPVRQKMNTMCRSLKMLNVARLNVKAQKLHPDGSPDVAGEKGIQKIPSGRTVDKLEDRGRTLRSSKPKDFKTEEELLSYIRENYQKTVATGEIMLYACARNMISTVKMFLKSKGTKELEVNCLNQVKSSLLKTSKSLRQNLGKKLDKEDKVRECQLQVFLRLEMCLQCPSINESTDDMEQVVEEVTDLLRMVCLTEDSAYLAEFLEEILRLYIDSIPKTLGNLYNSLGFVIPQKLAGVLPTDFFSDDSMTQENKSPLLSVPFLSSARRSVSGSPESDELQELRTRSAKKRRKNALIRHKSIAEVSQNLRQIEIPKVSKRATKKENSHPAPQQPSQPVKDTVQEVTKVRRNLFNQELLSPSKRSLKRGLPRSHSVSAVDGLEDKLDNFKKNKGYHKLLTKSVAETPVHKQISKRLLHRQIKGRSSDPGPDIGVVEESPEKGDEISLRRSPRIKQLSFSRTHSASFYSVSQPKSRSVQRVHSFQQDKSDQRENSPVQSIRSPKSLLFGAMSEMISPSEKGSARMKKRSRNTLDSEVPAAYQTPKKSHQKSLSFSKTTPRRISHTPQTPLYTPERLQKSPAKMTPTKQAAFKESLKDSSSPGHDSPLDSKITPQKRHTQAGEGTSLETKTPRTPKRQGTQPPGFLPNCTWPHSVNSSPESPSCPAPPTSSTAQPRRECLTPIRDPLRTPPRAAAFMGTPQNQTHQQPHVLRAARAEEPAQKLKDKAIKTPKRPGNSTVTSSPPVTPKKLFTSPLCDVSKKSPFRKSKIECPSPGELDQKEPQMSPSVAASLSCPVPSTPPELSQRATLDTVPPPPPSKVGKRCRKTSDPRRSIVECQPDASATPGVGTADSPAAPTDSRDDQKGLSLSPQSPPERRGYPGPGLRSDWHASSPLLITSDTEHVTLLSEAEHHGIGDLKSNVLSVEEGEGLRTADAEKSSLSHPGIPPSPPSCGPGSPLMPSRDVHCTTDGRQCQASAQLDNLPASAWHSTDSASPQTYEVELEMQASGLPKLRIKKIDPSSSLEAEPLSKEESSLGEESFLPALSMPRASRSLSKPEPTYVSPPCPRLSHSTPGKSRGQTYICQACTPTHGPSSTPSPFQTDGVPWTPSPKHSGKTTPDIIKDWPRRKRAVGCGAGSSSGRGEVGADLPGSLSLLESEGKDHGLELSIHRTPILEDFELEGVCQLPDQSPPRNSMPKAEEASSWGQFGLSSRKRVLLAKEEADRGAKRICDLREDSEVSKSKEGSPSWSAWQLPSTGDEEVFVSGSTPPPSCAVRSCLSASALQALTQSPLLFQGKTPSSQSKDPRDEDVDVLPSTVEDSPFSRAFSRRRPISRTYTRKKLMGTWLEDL
UniProt Q96CG3: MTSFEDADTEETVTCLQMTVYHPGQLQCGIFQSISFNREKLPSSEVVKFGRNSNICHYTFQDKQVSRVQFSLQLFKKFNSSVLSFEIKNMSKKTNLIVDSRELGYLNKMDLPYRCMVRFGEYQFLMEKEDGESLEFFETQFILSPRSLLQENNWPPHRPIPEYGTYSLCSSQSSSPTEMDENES
UniProt Q12800: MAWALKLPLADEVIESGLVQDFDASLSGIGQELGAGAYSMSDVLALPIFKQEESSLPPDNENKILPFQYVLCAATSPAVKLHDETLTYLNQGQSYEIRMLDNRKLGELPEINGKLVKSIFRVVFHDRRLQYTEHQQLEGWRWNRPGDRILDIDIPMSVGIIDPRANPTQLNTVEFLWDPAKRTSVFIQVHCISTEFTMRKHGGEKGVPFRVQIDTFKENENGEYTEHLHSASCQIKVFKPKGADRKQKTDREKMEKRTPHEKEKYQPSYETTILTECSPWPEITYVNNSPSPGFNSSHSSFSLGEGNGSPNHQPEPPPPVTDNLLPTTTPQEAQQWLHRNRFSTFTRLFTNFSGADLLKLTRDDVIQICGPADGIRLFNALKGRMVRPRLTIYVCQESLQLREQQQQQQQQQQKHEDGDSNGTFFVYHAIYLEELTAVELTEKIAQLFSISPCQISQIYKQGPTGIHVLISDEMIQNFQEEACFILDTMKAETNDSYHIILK
UniProt P35625: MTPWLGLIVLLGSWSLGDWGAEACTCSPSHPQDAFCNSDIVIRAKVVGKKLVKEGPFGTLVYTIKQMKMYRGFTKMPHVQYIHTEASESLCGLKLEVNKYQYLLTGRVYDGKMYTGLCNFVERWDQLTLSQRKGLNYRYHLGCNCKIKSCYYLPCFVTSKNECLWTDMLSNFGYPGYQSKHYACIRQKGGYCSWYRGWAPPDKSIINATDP
UniProt Q5JUR7: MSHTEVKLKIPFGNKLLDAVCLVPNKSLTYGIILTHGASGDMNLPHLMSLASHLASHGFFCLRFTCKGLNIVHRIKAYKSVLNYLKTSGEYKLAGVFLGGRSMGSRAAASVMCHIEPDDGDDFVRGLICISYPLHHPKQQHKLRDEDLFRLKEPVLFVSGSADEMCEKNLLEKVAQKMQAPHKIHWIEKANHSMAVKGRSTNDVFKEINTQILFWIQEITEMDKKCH
UniProt Q99595: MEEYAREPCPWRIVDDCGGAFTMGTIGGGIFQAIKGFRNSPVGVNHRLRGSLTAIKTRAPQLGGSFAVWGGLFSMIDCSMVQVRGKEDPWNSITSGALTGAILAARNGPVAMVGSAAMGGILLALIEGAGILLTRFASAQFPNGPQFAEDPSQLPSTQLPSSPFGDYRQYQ

Target	probe-labelled cysteine peptide fold change
TGFBRAP1_Q8WUH2_33_VNIECVECCGR (UniProt Q8WUH2)	-0.175
THOC1_Q96FV9_396_NEGCPSFVK (UniProt Q96FV9)	-0.137
THOC2_Q8NI27_436_DVFNMFCYLGPHLSHDPILFAK (UniProt Q8NI27)	0.0617
TGM2_P21980_371_SEGTYCCGPVPVR (UniProt P21980)	0.00473
THEMIS2_Q5TEJ8_545_KLPACEIQAPPPRPPK (UniProt Q5TEJ8)	-0.189
TELO2_Q9Y4R8_30_EAIHALSSSEDGGHIFCTLESLK (UniProt Q9Y4R8)	-0.121
THOC1_Q96FV9_49_KCTLDQAFR (UniProt Q96FV9)	-0.137
THBS1_P07996_718_DNCPNLPNSGQEDYDK (UniProt P07996)	-0.319
TES_Q9UGI8_196_LPCEMDAQGPK (UniProt Q9UGI8)	-0.148
TICRR_Q7Z2Z1_160_EAEAALGGLVNAVFLLAPCPHSQR (UniProt Q7Z2Z1)	-0.194
TIFA_Q96CG3_56_NSNICHYTFQDK (UniProt Q96CG3)	0.0425
TCP1_P17987_218_SQMESMLISGYALNCVVGSQGMPK (UniProt P17987)	0.131
TLN1_Q9Y490_1023_ASVPTIQDQASAMQLSQCAK (UniProt Q9Y490)	0.2
THADA_Q6YHU6_42_NLASLLLHCVQLTDGVSQIHYIK (UniProt Q6YHU6)	0.194
TGFBRAP1_Q8WUH2_582_NSFNPDDIINCLK (UniProt Q8WUH2)	0.0838
TES_Q9UGI8_361_NHAVVCQGCHNAIDPEVQR (UniProt Q9UGI8)	-0.0444
TIMM29_Q9BSF4_182_DCDINDDEFLHLPAHLR (UniProt Q9BSF4)	-0.0425
TFB2M_Q9H5Q4_149_VIHCDFFK (UniProt Q9H5Q4)	0.0456
TES_Q9UGI8_29_CEGFELHFWR (UniProt Q9UGI8)	-0.0799
TFCP2_Q12800_453_IAQLFSISPCQISQIYK (UniProt Q12800)	0.141

Rewritten with bars between the fields: part of the list above
Target | probe-labelled cysteine peptide fold change
THEMIS2_Q5TEJ8_545_KLPACEIQAPPPRPPK (UniProt Q5TEJ8) | -0.189
TELO2_Q9Y4R8_30_EAIHALSSSEDGGHIFCTLESLK (UniProt Q9Y4R8) | -0.121
THOC1_Q96FV9_49_KCTLDQAFR (UniProt Q96FV9) | -0.137
THBS1_P07996_718_DNCPNLPNSGQEDYDK (UniProt P07996) | -0.319
TES_Q9UGI8_196_LPCEMDAQGPK (UniProt Q9UGI8) | -0.148
TICRR_Q7Z2Z1_160_EAEAALGGLVNAVFLLAPCPHSQR (UniProt Q7Z2Z1) | -0.194
TIFA_Q96CG3_56_NSNICHYTFQDK (UniProt Q96CG3) | 0.0425
TCP1_P17987_218_SQMESMLISGYALNCVVGSQGMPK (UniProt P17987) | 0.131
TLN1_Q9Y490_1023_ASVPTIQDQASAMQLSQCAK (UniProt Q9Y490) | 0.2
THADA_Q6YHU6_42_NLASLLLHCVQLTDGVSQIHYIK (UniProt Q6YHU6) | 0.194

(next part)

Target	probe-labelled cysteine peptide fold change
TKT_P29401_206_CEAFGWHAIIVDGHSVEELCK (UniProt P29401)	0.148
TDRD7_Q8NHU6_692_KIEDYFHCK (UniProt Q8NHU6)	-0.133
TIMP3_P35625_184_HYACIR (UniProt P35625)	0.0581
THOC2_Q8NI27_804_RVPSIDVLCNEFHTPHDAAFFLSR (UniProt Q8NI27)	0.0449
THOC3_Q96J01_65_VHSVAWSCDGR (UniProt Q96J01)	-0.0273
TDG_Q13569_162_CLFMSGLSEVQLNHMDDHTLPGK (UniProt Q13569)	-0.0395
TEX30_Q5JUR7_166_LKEPVLFVSGSADEMCEK (UniProt Q5JUR7)	-0.163
TIMM17A_Q99595_17_IVDDCGGAFTMGTIGGGIFQAIK (UniProt Q99595)	-0.147
TENT2_Q6PIY7_374_IYPESFSPAIQLHLVHQAPCNVPPYLSK (UniProt Q6PIY7)	0.0187
THOC2_Q8NI27_28_GEFLHLCR (UniProt Q8NI27)	0.218
TIMM50_Q3ZCQ8_236_DISCLNRDPAR (UniProt Q3ZCQ8)	-0.0775
THYN1_Q9P016_89_QTTCWDGVR (UniProt Q9P016)	-0.0527
THOC6_Q86W42_214_HEECSRPHNGR (UniProt Q86W42)	0.1
THOC1_Q96FV9_226_HTEDREEGMDVEEGEMGDEEAPTTCSIPIDYNLYR (UniProt Q96FV9)	-0.14
TDRD7_Q8NHU6_290_PCSGGQDLLLYPAK (UniProt Q8NHU6)	-0.138
THOP1_P52888_246_VEEAFNCR (UniProt P52888)	-0.163
TEX30_Q5JUR7_129_GLICISYPLHHPK (UniProt Q5JUR7)	0.0568
TLN1_Q9Y490_1363_ECDNALRELETVR (UniProt Q9Y490)	-0.431
TES_Q9UGI8_364_NHAVVCQGCHNAIDPEVQR (UniProt Q9UGI8)	0.201
TFCP2_Q12800_72_ILPFQYVLCAATSPAVK (UniProt Q12800)	0.339

— the supplement of paper PMC12067093, “Discovery and optimisation of a covalent ligand for TRIM25 and its application to targeted protein ubiquitination” (Chemical Science, 2025)
